Experimental data published in patent publication US5679641A, “Peptides of human P53 protein for use in human T cell response inducing compositions, and human P53 protein-specific cytotoxic t-lymphocytes” (Rijksuniversiteit Leiden, priority 1992, dated 1997).
At least one peptide structure holds a part that was inferred or is arguable (an end, a ring closure or a residue).

Biological target: T1, HLA-A2.1 molecule (Homo sapiens, UniProt P04439, D140Y/D185E/D98H/E176V/E277Q/G131W/G231S/I119V/I121R/I166T/I218V/L300P/L318F/N151K/N90K/P208A/P217A/Q86G/Q94H/R138H/R169H/T345S)
T1 construct: endogenous in cells; host or cells: 174.CEM T2 (antigen-processing-defective human T x B hybrid cell line, provided by P. Cresswell)
Assay: Peptide binding: upregulation of HLA-A2.1 expression on (174.CEM) T2 cells, FACScan
Assay type: cell-based
Settings: 200 μg/ml peptide, 16 hours at 37° C., antibody BB7.2, mean fluorescence with peptide divided by without, positive when ratio of 1.2 is reached

In the case of `CC[C@H](C)[C@H](NC(=O)[C@H](CC(C)C)NC(=O)[C@H](Cc1c[nH]cn1)NC(=O)[C@H](CCC(N)=O)NC(=O)[C@@H]1CCCN1C(=O)[C@@H]1CCCN1C(=O)[C@H](C)NC(=O)[C@H](CC(C)C)NC(=O)CN)C(=O)N[C@@H](CCCNC(=N)N)C(=O)N[C@H](C(=O)O)C(C)C` [compound 17], the “fluorescence ratio (i.e. binding ability)” value is reported as 2.6.
